# Measured values reported in paper PMC5996148.
# Some of the results follow.
# Assays:
# Test in all cases: protein microarray (ProtoArray v5.0), streptavidin-Alexa Fluor 647
# Details in all cases: 3'-biotin; 20 mM Tris (pH 7.5), 5 mM MgCl2, 100 mM KCl, 0.1% Tween-20, A/T-rich and random oligonucleotide blockers; temperature not stated; high values mean tight binding
# C2orf18 (human) = tested on: C2orf18 (human)
# C2orf33 (human) = tested on: C2orf33 (human)
# C2orf43 (human) = tested on: C2orf43 (human)
# C3orf45 (human) = tested on: C3orf45 (human)
# C4BPB (human) = tested on: C4BPB (human)
# [1] = tested on: C4b-binding protein beta chain (human)
# C4orf18 (human) = tested on: C4orf18 (human)
# C4orf19 (human) = tested on: C4orf19 (human)
# C4orf33 (human) = tested on: C4orf33 (human)
# C4orf35 (human) = tested on: C4orf35 (human)
sequence,measurement,setting,value
GGTGACAGGGGTATGGGGAGGGG [G4-2 biotinylated (Ct1)],binding signal,C2orf18 (human),-0.38 z-score
same,binding signal,C2orf33 (human),-0.393 z-score
same,binding signal,C2orf43 (human),-0.391 z-score
same,binding signal,C3orf45 (human),-0.37 z-score
same,binding signal,C4BPB (human),-0.37 z-score
same,binding signal,[1],-0.376 z-score
same,binding signal,C4orf18 (human),-0.385 z-score
same,binding signal,C4orf19 (human),-0.374 z-score
same,binding signal,C4orf33 (human),-0.375 z-score
same,binding signal,C4orf35 (human),-0.388 z-score
